Taken from: PubChem BioAssay AID1259424 (University of Nebraska Medical Center, 2018)

Screen: 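Find knockdowns that reproduce the expression shifts seen after KSR1 loss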 (primary screen)
System: human HCT116 colon cancer cells
Reagent: siRNA pool against human genes, 50 nM
Read-out: 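Log2 levels of six mRNAs (branched-DNA multiplex), adjusted by two reference genes and the non-targeting median, then scored against the average KSR1 knockdown pattern as Pearson r and euclidean distance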
Direction: mean correlation with KSR1 profile and KSR1 correlation: higher = expression change more like KSR1 knockdown; mean distance from KSR1 profile: higher = expression change less like KSR1 knockdown
This is a random part of about 14,000 deposited reagents. 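Higher correlation or smaller distance means closer resemblance to KSR1 loss; control wells, including KSR1 knockdowns, recur on many plates.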 A reagent listed more than once was tested more than once; the source does not tell the runs apart. The record does not give: the time to read-out.

no.	Target gene	PubChem SID	mean correlation with KSR1 profile	mean distance from KSR1 profile	KSR1 correlation, replicate 1	KSR1 correlation, replicate 2	KSR1 correlation, replicate 3
1	RARB	SID363992249	0.255	1.14	0.407	0.19	0.0965
2	RARB	SID363992249	-0.115	2.57	-0.0995	-0.147	-0.306
3	DENND4C	SID364000650	-0.212	1.65	-0.383	-0.152	-0.124
4	SUSD4	SID364000684	-0.294	3.54	-0.265	-0.425	-0.139
5	DNAAF11	SID363998344	-0.0656	1.59	0.274	-0.386	-0.122
6	NDC80	SID363996944	-0.282	2.65	-0.208	-0.474	-0.535
7	G6PD	SID363991733	-0.0941	3.74	-0.106	-0.0652	0.0725
8	RAD21	SID363997087	0.304	3.58	0.389	0.366	0.169
9	LSM1	SID363998874	-0.712	2.42	-0.844	-0.711	-0.579
10	HIPK1	SID364004736	0.537	1.59	0.574	0.435	0.223
11	PRPF18	SID363994750	0.55	1.3	0.44	0.451	0.35
12	CCDC170	SID364003227	0.19	1.71	0.18	-0.193	0.262
13	MFAP3	SID363996795	0.277	1.5	0.0515	0.279	0.462
14	ZNF124	SID363994534	0.701	0.853	0.665	0.69	0.515
15	DNPEP	SID363998049	0.0687	3.58	0.262	-0.281	0.0628
16	VENTX	SID363998880	-0.314	5.33	-0.201	-0.228	-0.369
17	PORCN	SID364002569	-0.0406	1.73	-0.284	0.0687	-0.133
18	ZNF593	SID363999686	-0.336	1.57	0.0149	-0.46	0.0276
19	LAIR1	SID363993485	-0.377	2.83	-0.252	-0.531	-0.501
20	ZNF624	SID364001829	-0.0255	2.7	0.155	-0.136	-0.299

Individual results from the entries so far.
DNAAF11 [SID363998344], mean correlation with KSR1 profile = -0.0656
Under “KSR1 correlation, replicate 2”, CCDC170 [SID364003227] has -0.193
